Reference: PMC9135762
These are yes or no findings as the source states them, for the method shown. Binding seen in cells or lysates may run through a third protein. A yes stands for co-enrichment or nearness to the bait. Other partners may have been found.

Chains of the proteins cited; added tags and fusions are not shown.
UniProt P35558: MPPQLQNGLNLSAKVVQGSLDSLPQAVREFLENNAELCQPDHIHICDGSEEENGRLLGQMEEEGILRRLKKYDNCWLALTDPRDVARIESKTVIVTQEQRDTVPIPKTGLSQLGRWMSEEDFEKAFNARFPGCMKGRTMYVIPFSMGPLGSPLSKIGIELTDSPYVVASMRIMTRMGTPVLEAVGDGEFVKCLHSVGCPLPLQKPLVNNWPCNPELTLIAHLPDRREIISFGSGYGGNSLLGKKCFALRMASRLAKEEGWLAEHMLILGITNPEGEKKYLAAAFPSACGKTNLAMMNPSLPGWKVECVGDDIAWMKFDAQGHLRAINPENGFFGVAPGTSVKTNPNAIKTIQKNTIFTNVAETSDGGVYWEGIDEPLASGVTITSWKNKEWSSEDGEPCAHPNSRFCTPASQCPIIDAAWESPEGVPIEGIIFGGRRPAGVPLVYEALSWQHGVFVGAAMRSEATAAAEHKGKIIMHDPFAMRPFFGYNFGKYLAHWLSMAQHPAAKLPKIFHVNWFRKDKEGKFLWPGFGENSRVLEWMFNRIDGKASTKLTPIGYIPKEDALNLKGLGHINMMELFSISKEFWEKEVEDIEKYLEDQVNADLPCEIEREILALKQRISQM

Molecular target: T1, pyruvate carboxylase (human (endogenous in hADSC)) (UniProt P11498)
T1 sequence: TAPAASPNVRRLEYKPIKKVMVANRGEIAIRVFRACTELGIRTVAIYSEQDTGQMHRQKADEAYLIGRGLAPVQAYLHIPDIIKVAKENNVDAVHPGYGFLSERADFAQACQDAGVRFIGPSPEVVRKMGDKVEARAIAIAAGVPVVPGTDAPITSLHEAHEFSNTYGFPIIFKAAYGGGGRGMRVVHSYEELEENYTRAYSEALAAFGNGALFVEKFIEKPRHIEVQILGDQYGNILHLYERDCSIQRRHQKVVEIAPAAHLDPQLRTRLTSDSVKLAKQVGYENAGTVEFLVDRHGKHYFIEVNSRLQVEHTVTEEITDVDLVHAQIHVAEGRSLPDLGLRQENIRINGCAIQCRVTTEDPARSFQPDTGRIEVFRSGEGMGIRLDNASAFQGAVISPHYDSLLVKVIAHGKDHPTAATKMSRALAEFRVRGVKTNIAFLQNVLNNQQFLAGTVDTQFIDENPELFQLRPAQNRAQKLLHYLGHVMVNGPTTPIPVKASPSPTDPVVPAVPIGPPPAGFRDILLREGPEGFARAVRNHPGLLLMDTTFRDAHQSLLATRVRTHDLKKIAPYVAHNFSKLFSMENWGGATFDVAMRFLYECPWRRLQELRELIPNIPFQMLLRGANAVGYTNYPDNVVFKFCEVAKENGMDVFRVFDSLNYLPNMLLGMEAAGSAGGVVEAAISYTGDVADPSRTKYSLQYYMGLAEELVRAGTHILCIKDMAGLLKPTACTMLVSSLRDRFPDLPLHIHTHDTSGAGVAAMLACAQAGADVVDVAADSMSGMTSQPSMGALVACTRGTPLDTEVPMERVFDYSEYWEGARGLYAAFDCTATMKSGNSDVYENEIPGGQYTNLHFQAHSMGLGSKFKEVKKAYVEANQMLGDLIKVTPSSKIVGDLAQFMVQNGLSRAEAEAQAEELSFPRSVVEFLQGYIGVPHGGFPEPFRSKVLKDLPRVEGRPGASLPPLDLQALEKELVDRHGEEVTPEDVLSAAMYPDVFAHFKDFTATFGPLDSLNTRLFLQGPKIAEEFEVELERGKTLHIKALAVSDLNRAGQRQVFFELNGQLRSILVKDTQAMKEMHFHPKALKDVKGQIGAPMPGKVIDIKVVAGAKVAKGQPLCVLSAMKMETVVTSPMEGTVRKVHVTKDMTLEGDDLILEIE
Assay: affinity purification with mass spectrometry; PC immunoprecipitated with 3 ug PC antibody (ProteinTech) or rabbit IgG, Protein A/G beads, from the mitochondria/membrane fraction of differentiated hADSC in RIP lysis buffer without DTT; cells transfected with GapmeR NC or GapmeR 1 (ADIPINT knockdown); partners identified by mass spectrometry

binding: binds
Substance: PCK1 (from UniProt P35558 1-622) (enzyme)
